Reference: paper PMC8624189, “Phenolic Profiles and Biological Activities of Extracts from Edible Wild Fruits Ehretia tinifolia and Sideroxylon lanuginosum” (Foods, 2021)
Values after ≈ are worked out from the molar mass of the structure shown.

Tested on: MCF-7 cells
Experiment: Antiproliferative activity, Alamar Blue, MCF-7
Assay type: cell-based
Settings: Homo sapiens, MCF7; 24 h exposure; read-out: Half Maximal Inhibitory Concentration MCF-7
Method: The antiproliferative effects of extracts of E. tinifolia and S. lanuginosum were assessed using the method described previously by Viveros-Valdez, et al.. HeLa (ATCC® CCL-2), MCF-7 (ATCC® HTB-22) and HT-29 (ATCC® HTB-38) cancer cell lines were used. The cells were seeded in 25 cm^2 tissue culture flasks in Dulbecco’s modified eagle medium (DMEM) mixed with Ham’s nutrients (Ham’s F-12) and supplemented with 10% fetal bovine serum (FBS), adjusting the pH to 7.2. A mixture of antibiotics composed of penicillin and streptomycin (10,000 IU/mL: 10,000 µg/mL; 1 mL of mixture/1 L of medium) was added. Cells were maintained at 37 °C in an incubator under a 5% CO2/95% air atmosphere at constant humidity. Cells were harvested by trypsinization, counted with a hemocytometer, and their viability was confirmed by Trypan Blue (0.4%). The different cancer cell lines were seeded with 5000 cells per well in a 96 well plate.

IC50: 13 ± 1 mg/L (≈ 15.2 µM)
SMILES: CC(=O)O[C@H]1C(=O)[C@@]2(C)[C@H]([C@H](OC(=O)c3ccccc3)[C@]3(O)C[C@H](OC(=O)[C@H](O)[C@@H](NC(=O)c4ccccc4)c4ccccc4)C(C)=C1C3(C)C)[C@]1(OC(C)=O)CO[C@@H]1C[C@@H]2O [taxol, Taxol]
